# Assay results reported in the supplement of paper PMC7125110.
# ± gives the standard error. Many of these values have a large error.
# B1: glmS ribozyme (parent)
# chain: AUAAAAGCGCCAGAACUACAGAAAUGUAGUUGACGAGGAGGAGGUUUAUCGAAUUUUCGGCGGAUGCCUCCAAA
# Variants of: B1
# Assay: self-cleavage kobs at 640 uM GlcN6P; higher = faster cleavage; RNA array
# Settings: with glucosamine-6-phosphate
# How it was run: (§1)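 On sequenced MiSeq chips, barcoded ribozyme variants were made in situ by E. coli RNA polymerase and followed at 37 °C through a hybridised Cy3 probe. Glucosamine-6-phosphate was flowed in at 40 μM to 10 mM in HEPES/KCl/Mg(OAc)2 buffer. Exponential fits to normalised per-tile medians gave kobs, and weighted Michaelis–Menten fits gave kcat and KM.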
row,Variant,self-cleavage kobs at 640 uM GlcN6P [s⁻¹]
1,C11U G29U A42G,3.84e-05 ± 2.5e-05
2,C11U G66U,2.28e-05 ± 2e-05
3,C11U U30G U45G,2.17e-05 ± 1.5e-05
4,A12C A14C C70U,1.86e-05 ± 1.4e-05
5,A12C C50U,2.42e-05 ± 1.3e-05
6,A12C C70G C71U,3.75e-05 ± 2e-05
7,A12C G37A A52G,1.79e-05 ± 1.3e-05
8,A12C G37U C50G U54G,3.49e-05 ± 2.4e-05
9,A12C G41U C70A,0.0199 ± 0.01
10,A12C U46A C71A,3.69e-05 ± 2.2e-05
11,A12C U46C C50G G63U C67G C68U,3.42e-05 ± 2.7e-05
12,A12G A15C U31G C68G,0.000134 ± 8.6e-05
13,A12G U30G,1.79e-05 ± 9.4e-06
14,A12G U65G C67A,2.78e-05 ± 1.6e-05
15,A12U A15C G44U,2.84e-05 ± 1.8e-05
16,A12U C67U C70G,2.84e-05 ± 2.1e-05
17,A12U G41U U46C,2.78e-05 ± 2.2e-05
18,A12U G44U C70U,3.82e-05 ± 2.2e-05
19,G13A C68G,1.92e-05 ± 1.4e-05
20,G13A U31C A36U C58A G60C G62A C67G,0.000141 ± 7.2e-05
21,G13A U45G,1.51e-05 ± 9.7e-06
22,G13A U57A,3.64e-05 ± 1.9e-05
23,G13C A15U A52U C67A C71G,5.97e-05 ± 3.2e-05
24,G13C C16A A42G,3.59e-05 ± 2.4e-05
25,G13U A14G C61U C70G,2.23e-05 ± 2.2e-05
26,G13U G40C,4.29e-05 ± 2.4e-05

row,Variant,self-cleavage kobs at 640 uM GlcN6P [s⁻¹]
1,G13U U65A,3.06e-05 ± 2.7e-05
2,A14C A36G C50G,3e-05 ± 2.6e-05
3,A14C A53G C58A C70G,4.92e-05 ± 2.6e-05
4,A14C G29C A64G,4.77e-05 ± 2.4e-05
5,A14C G29U G37U G38A C70A,4.14e-05 ± 2.8e-05
6,A14C U54A C67A C68A,3.25e-05 ± 2.3e-05
7,A14G A36G C70G,3.42e-05 ± 1.9e-05
8,A14U A15U C16U C67G,6.39e-05 ± 4.5e-05
9,A14U C58U,1.59e-05 ± 1.2e-05
10,A14U C68A,2.01e-05 ± 1.5e-05
11,A14U G32A C58U,2.8e-05 ± 1.8e-05
12,A14U G62U C70G C71G,4.87e-05 ± 3.4e-05
13,A15C C16A C70U C71U,3.22e-05 ± 1.9e-05
14,A15C C58U,2.47e-05 ± 1.4e-05
15,A15U A36G U69C C70A,2.37e-05 ± 1.8e-05
16,A15U A42G U69G,4.13e-05 ± 2.8e-05
17,A15U C16A C70G,5.35e-05 ± 2.8e-05
18,A15U U31A C70A,2.67e-05 ± 2.6e-05
19,C16A A39G C58G C67G,4.85e-05 ± 2.4e-05
20,C16A G32U C34A A36G C70G,2.73e-05 ± 2.5e-05
21,C16A U30C U57G U65C C70U,3.33e-05 ± 1.7e-05
22,C16G A52G U55G,3.85e-05 ± 2.6e-05
23,C16G C68G,2.87e-05 ± 2.1e-05
24,C16G G41U,1.89e-05 ± 1.5e-05
25,C16G U57A C68U,3.9e-05 ± 2.4e-05
26,C16U C34G C67G,4.58e-05 ± 3.1e-05

# Some values from the entries so far.
# self-cleavage kobs at 640 uM GlcN6P [s⁻¹], A14C A36G C50G is entered as 3e-05 ± 2.6e-05
# self-cleavage kobs at 640 uM GlcN6P [s⁻¹], A14U G32A C58U is entered as 2.8e-05 ± 1.8e-05
# self-cleavage kobs at 640 uM GlcN6P [s⁻¹], C16U C34G C67G is entered as 4.58e-05 ± 3.1e-05
# self-cleavage kobs at 640 uM GlcN6P [s⁻¹], C16A A39G C58G C67G is entered as 4.85e-05 ± 2.4e-05
# self-cleavage kobs at 640 uM GlcN6P [s⁻¹], A15C C58U is entered as 2.47e-05 ± 1.4e-05
# self-cleavage kobs at 640 uM GlcN6P [s⁻¹], G13U U65A is entered as 3.06e-05 ± 2.7e-05

# Next results:

row,Variant,self-cleavage kobs at 640 uM GlcN6P [s⁻¹]
1,C16U G29U C67G C70U,3.19e-05 ± 2.2e-05
2,C16U G66C C67U,4.12e-05 ± 3.4e-05
3,C16U U46C C58G C61G,0.0003 ± 0.00015
4,G26U G32U U55G,1.92e-05 ± 1.7e-05
5,G29A C50G U55A,0.00111 ± 0.00063
6,G29A C61G C68U,4.47e-05 ± 2.4e-05
7,G29A G38C A53U C68G,3.96e-05 ± 3.2e-05
8,G29C G32U,4.74e-05 ± 3.9e-05
9,G29C G32U C67A,4.89e-05 ± 2.5e-05
10,G29C G40A U56G,2.78e-05 ± 1.7e-05
11,G29U C61G C71A,2.65e-05 ± 2.1e-05
12,G29U G32C,2.72e-05 ± 1.4e-05
13,G29U G38U G66U C68A U69G,0.000256 ± 0.00014
14,U30A A39G U49A C68G,6.36e-05 ± 3.8e-05
15,U30A A52U,2.71e-05 ± 1.9e-05
16,U30A C58G G59A C70G,2.07e-05 ± 1.8e-05
17,U30C U47A C70A,6.18e-05 ± 3.1e-05
18,U30G A64G,0.00139 ± 0.0008
19,U30G U31A,0.00548 ± 0.0037
20,U31A A52G C68A,2.17e-05 ± 2.2e-05
21,U31A G44A,1.27e-05 ± 1.2e-05
22,U31A G51U G63A U69C,3.47e-05 ± 3.3e-05
23,U31C A36C G63U C68A,2.22e-05 ± 1.5e-05
24,U31C U57G,2.2e-05 ± 2.1e-05
25,U31G G41A U54C,3e-05 ± 2.2e-05

# Variants of: B1
# Assay: self-cleavage kobs at 2500 uM GlcN6P; higher = faster cleavage; RNA array
# Settings: with glucosamine-6-phosphate
# How it was run: as §1
row,Variant,self-cleavage kobs at 2500 uM GlcN6P [s⁻¹]
1,C11U G29U A42G,5.85e-05 ± 5.4e-05
2,A12C G41U C70A,0.0234 ± 0.014
3,A12C U46C C50G G63U C67G C68U,5.45e-05 ± 2.8e-05
4,G13A C68G,2.34e-05 ± 1.8e-05
5,A14C A53G C58A C70G,4.5e-05 ± 3e-05
6,A14G A36G C70G,3.38e-05 ± 2.4e-05
7,C16A U30C U57G U65C C70U,3.99e-05 ± 3.3e-05
8,C16U C34G C67G,3.64e-05 ± 3.6e-05
9,C16U G66C C67U,2.92e-05 ± 2e-05
10,U30G A64G,0.00281 ± 0.0015

# Variants of: B1
# Assay: self-cleavage kobs at 10000 uM GlcN6P; higher = faster cleavage; RNA array
# Settings: with glucosamine-6-phosphate
# How it was run: as §1
row,Variant,self-cleavage kobs at 10000 uM GlcN6P [s⁻¹]
1,A12U C67U C70G,2.58e-05 ± 1.6e-05
2,G13A U31C A36U C58A G60C G62A C67G,3.34e-05 ± 1.7e-05
3,A15U A36G U69C C70A,2.03e-05 ± 1.9e-05
4,C16G U57A C68U,3.02e-05 ± 1.9e-05
5,C16U G66C C67U,3.66e-05 ± 2.1e-05

# Variants of: B1
# Assay: self-cleavage kobs at 160 uM GlcN6P; higher = faster cleavage; RNA array
# Settings: with glucosamine-6-phosphate
# How it was run: as §1
row,Variant,self-cleavage kobs at 160 uM GlcN6P [s⁻¹]
1,A14U C58U,2.45e-05 ± 2e-05
2,A15U U31A C70A,3.08e-05 ± 2.2e-05
3,C16U C34G C67G,0.00011 ± 6.1e-05
